Laboratory results taken from US20240209341A1 (University of California, published 2024).
Results are given in words; binding and its absence hold for the method and conditions named. For part of these data: Binding seen in cells or lysates may run through a third protein. Some binding calls cover weakened binding; strength is not graded here. Sequences can lack the tags named with a protein.

The chains behind the UniProt entries cited, without tags or fusion partners. Residues count along the entry.
UniProt O00206, residues 24-631: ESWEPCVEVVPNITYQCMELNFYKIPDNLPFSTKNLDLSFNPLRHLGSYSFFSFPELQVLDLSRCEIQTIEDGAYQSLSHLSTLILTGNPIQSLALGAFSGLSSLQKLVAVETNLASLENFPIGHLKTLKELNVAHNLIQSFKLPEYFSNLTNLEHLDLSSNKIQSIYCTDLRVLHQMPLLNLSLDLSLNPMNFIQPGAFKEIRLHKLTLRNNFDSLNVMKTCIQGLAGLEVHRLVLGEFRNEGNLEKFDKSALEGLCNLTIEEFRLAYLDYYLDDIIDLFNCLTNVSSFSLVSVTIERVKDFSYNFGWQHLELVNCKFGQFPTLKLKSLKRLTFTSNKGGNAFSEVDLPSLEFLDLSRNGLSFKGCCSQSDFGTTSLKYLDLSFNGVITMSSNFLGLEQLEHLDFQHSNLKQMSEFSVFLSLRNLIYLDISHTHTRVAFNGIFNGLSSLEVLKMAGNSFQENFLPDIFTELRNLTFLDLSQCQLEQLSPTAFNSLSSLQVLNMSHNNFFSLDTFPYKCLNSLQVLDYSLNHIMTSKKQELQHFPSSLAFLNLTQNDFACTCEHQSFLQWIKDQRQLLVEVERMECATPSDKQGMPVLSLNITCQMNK
UniProt P02647, residues 25-267: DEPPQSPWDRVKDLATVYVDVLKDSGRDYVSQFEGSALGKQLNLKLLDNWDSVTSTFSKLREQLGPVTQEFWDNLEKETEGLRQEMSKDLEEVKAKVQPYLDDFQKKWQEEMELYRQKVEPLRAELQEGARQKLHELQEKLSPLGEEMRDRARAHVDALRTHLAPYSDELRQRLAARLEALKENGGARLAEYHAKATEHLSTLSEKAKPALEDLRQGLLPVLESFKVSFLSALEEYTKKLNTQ

What was measured:
[1] = biological target: recombinant TLR4 ectodomain, His-tagged (Sino Biological) (human) (UniProt O00206); assay: pull-down with BE-1 antibody; ELISA on eTLR4-coated plates
[2] = biological target: recombinant TLR4 ectodomain, His-tagged (Sino Biological) (human) (UniProt O00206); assay: test-tube co-IP with anti-TLR4 antibody, immunoblot with anti-His antibody
[3] = biological target: T1, human APOA1 (human, UniProt P02647 25-267); assay: ELISA, AIBP-coated plates incubated with 5 µg/ml human APOA1
T1 construct: also called ApoA-I
Description: ELISA binding assays. To assess AIBP-TLR4 binding, 96-well plates were coated with 5 μg/ml of eTLR4, washed three times with PBS containing 0.05% Tween-20, blocked with PBS containing 1% BSA, and incubated with wtAIBP or mutAIBP, followed by 2 μg/ml of a biotinylated BE-1 anti-AIBP monoclonal antibody. To assess AIBP-APOA1 binding, plates were coated with BSA, wtAIBP or mutAIBP, washed, blocked, and incubated with 5 μg/ml of human APOA1 (a gift from Dmitri Sviridov, Baker Heart and Diabetes Institute, Melbourne, Australia), followed by a biotinylated anti-APOA1 antibody (Academy Bio-Medical Company, RRID:AB_1238781). In both assays, neutravidin-AP was added and incubated for 45 minutes at room temperature, followed by LumiPhos 530 (Lumigen) for 90 min, and luminescence was measured using a luminescence plate reader (BioTek, Winooski, Vermont).
FIG. 9: Identifies sequence motifs that contribute to AIBP binding to TLR4: FIG. 9. Identification of the domain in the AIBP molecule responsible for TLR4 binding. A, Human AIBP: signal peptide (aa 1-24), previously uncharacterized N-terminal domain (aa 25-51), and YjeF_N domain (aa 52-288). […] IP of eTLR4 and wtAIBP or mutAIBP in a test tube with an anti-AIBP antibody; blot and quantification from 3 independent experiments (D). […]

Measured: binding

B1: His-tagged wild type (wt, 25-288 aa) human AIBP (protein)
chain: MSPIDPMGHHHHHHGRRRASVAAGILVPRGSPGLDGICSRQTIACRSGPTWWGPQRLNSGGRWDSEVMASTVVKYLSQEEAQAVDQELFNEYQFSVDQLMELAGLSCATAIAKAYPPTSMSRSPPTVLVICGPGNNGGDGLVCARHLKLFGYEPTIYYPKRPNKPLFTALVTQCQKMDIPFLGEMPAEPMTIDELYELVVDAIFGFSFKGDVREPFHSILSVLKGLTVPIASIDIPSGWDVEKGNAGGIQPDLLISLTAPKKSATQFTGRYHYLGGRFVPPALEKKYQLNLPPYPDTECVYRLQ
binds: all assays above
